{"source": "PubChem BioAssay AID743454 (Peter MacCallum Cancer Centre, 2014)", "aim": "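Search for knock-downs that restore vorinostat killing in resistant colon cancer cells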 (primary screen)", "cells": "human HCT116-VR colon cancer cells, selected for vorinostat resistance", "knock-down reagent": "siRNA pool against human genes, 40 nM siRNA pool", "duration": "vorinostat for 24 h, read-out about 72 h after transfection", "treatment": "vorinostat at 2.5 µM final", "measured": "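Two measures, CellTiter-Fluor viability and luminescent caspase 3/7 activity, each as fold change against same-plate mock wells, mean of duplicates, then screen-wide robust z-score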", "scale": "viability robust z-score: higher = more viable cells than screen typical; caspase robust z-score: higher = more caspase 3/7 activity than screen typical", "hit rule": "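a knock-down is a hit when classed RV1 or RV2 for lowered viability, or CA1 or CA2 for caspase activation; those lethal without drug were dropped; hits were retested singly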", "note": "This is one part, drawn at random, of about 18,000 deposited reagents. 450 of all reagents (2.5%) count as active. 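Single biological run; no consistent viability z cut-off exists, so the class columns, not z-scores, define the calls.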 Entries without a mark were called inactive."}
{"Gene": "PAQR5 (progestin and adipoQ receptor family member 5)", "PubChem SID": "SID135621492", "viability hit class": "no change", "caspase hit class": "no change", "viability robust z-score": -0.32, "caspase robust z-score": -0.78}
{"Gene": "TRIM75 (tripartite motif containing 75)", "PubChem SID": "SID135624761", "viability hit class": "no change", "caspase hit class": "no change", "viability robust z-score": 1.42, "caspase robust z-score": 0.18}
{"Gene": "ZNF274 (zinc finger protein 274)", "PubChem SID": "SID134317588", "viability hit class": "no change", "caspase hit class": "no change", "viability robust z-score": 2.49, "caspase robust z-score": 0.36}
{"Gene": "NPR2 (natriuretic peptide receptor 2)", "PubChem SID": "SID152151652", "viability hit class": "no change", "caspase hit class": "no change", "viability robust z-score": 0.1, "caspase robust z-score": 0.76}
{"Gene": "SAMM50 (SAMM50 sorting and assembly machinery component)", "PubChem SID": "SID134321777", "viability hit class": "no change", "caspase hit class": "no change", "viability robust z-score": -2.12, "caspase robust z-score": 2.46}
{"Gene": "ZNF385A (zinc finger protein 385A)", "PubChem SID": "SID134318140", "viability hit class": "no change", "caspase hit class": "no change", "viability robust z-score": 0.02, "caspase robust z-score": -0.1}
{"Gene": "MT1G (metallothionein 1G)", "PubChem SID": "SID135623907", "viability hit class": "no change", "caspase hit class": "no change", "viability robust z-score": 0.01, "caspase robust z-score": -1.08}
{"Gene": "CLEC18B (C-type lectin domain family 18 member B)", "PubChem SID": "SID135625385", "viability hit class": "no change", "caspase hit class": "no change", "viability robust z-score": 0.27, "caspase robust z-score": 1.07}
{"Gene": "MLLT1 (MLLT1 super elongation complex subunit)", "PubChem SID": "SID152147590", "viability hit class": "no change", "caspase hit class": "no change", "viability robust z-score": 1.14, "caspase robust z-score": 0.06}
{"Gene": "ACER3 (alkaline ceramidase 3)", "PubChem SID": "SID152155309", "viability hit class": "no change", "caspase hit class": "no change", "viability robust z-score": 0.82, "caspase robust z-score": -0.02}
{"Gene": "VDAC1 (voltage dependent anion channel 1)", "PubChem SID": "SID134323530", "viability hit class": "no change", "caspase hit class": "no change", "viability robust z-score": -0.72, "caspase robust z-score": -0.92}
{"Gene": "FAAP24 (FA core complex associated protein 24)", "PubChem SID": "SID152148703", "viability hit class": "no change", "caspase hit class": "no change", "viability robust z-score": 0.66, "caspase robust z-score": 0.21}
{"Gene": "ADGRG7 (adhesion G protein-coupled receptor G7)", "PubChem SID": "SID135621023", "viability hit class": "no change", "caspase hit class": "no change", "viability robust z-score": 0.77, "caspase robust z-score": -0.68}
{"Gene": "COCH (cochlin)", "PubChem SID": "SID134316161", "viability hit class": "no change", "caspase hit class": "no change", "viability robust z-score": 0.39, "caspase robust z-score": -0.51}

Part of the list above, reduced to “viability hit class”.
FAAP24 (FA core complex associated protein 24) [SID152148703] = no change
ADGRG7 (adhesion G protein-coupled receptor G7) [SID135621023] = no change
